Data reported in the supplement of paper PMC12823440, “Inhibitors supercharge kinase turnover through native proteolytic circuits” (Nature, 2025).
Structures can show the parent of a compound that is named as a salt. Some of the results follow. Hit calls seldom repeat between salt and free forms of one compound.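 Kinases were expressed as nanoluciferase fusions in K562 cells and luminescence was read every 4 h between 2 and 18 h as percent of control, DMSO set to 100% and a positive control to 0%. A time point counts as decreased when the signal drops significantly (2 sigma). The hit call is the authors' own, does not follow from the count of time points alone, and its rule is not shown.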

Sequences of proteins named here, by UniProt entry; tags and fusion partners are left off. A change or cut given only in a name is not applied to a line headed by its entry.
UniProt Q9Y616: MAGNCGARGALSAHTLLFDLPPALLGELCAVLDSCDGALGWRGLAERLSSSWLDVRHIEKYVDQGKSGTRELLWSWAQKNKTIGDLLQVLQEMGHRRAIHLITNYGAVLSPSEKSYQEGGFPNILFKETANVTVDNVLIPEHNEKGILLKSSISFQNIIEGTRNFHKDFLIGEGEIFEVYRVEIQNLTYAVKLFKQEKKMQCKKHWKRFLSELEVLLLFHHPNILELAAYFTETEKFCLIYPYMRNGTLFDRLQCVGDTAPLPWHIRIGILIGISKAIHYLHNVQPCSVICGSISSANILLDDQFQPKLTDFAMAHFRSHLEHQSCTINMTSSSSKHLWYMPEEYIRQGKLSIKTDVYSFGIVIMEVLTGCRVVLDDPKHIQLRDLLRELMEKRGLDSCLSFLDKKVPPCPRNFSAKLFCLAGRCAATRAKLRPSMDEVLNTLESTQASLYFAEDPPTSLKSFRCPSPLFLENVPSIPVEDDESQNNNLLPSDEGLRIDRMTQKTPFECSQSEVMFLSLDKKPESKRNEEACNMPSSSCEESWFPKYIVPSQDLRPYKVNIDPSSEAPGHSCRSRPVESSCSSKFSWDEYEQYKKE
UniProt P23458: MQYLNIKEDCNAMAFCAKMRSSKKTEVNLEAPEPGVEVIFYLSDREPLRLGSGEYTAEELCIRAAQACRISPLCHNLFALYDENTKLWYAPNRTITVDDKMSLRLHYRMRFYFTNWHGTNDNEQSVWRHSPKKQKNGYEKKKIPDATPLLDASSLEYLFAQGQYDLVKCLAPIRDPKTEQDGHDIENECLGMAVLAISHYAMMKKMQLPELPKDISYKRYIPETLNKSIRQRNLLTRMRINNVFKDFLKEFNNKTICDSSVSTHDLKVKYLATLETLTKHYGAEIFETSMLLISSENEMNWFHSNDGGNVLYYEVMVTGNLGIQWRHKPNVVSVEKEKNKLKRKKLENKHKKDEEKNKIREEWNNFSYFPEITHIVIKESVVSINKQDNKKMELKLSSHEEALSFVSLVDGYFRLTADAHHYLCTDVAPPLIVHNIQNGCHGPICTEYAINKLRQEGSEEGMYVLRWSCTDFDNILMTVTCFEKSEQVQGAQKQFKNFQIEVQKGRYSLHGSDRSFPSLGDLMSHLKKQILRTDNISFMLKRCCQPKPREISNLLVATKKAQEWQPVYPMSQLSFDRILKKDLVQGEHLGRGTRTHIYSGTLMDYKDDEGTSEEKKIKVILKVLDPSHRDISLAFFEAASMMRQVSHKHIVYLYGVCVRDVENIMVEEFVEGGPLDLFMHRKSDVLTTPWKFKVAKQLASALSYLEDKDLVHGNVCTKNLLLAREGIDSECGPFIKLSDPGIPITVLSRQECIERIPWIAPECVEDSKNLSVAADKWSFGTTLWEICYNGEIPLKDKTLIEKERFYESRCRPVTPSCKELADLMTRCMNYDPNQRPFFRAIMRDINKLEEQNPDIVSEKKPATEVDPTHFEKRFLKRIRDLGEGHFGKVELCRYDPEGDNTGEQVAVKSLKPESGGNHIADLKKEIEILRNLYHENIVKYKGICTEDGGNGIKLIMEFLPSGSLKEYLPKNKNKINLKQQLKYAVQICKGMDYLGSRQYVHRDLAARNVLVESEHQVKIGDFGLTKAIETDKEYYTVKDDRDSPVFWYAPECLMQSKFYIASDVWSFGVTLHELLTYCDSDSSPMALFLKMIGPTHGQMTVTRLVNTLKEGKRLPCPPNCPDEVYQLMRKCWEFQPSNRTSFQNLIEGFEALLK
UniProt P06239: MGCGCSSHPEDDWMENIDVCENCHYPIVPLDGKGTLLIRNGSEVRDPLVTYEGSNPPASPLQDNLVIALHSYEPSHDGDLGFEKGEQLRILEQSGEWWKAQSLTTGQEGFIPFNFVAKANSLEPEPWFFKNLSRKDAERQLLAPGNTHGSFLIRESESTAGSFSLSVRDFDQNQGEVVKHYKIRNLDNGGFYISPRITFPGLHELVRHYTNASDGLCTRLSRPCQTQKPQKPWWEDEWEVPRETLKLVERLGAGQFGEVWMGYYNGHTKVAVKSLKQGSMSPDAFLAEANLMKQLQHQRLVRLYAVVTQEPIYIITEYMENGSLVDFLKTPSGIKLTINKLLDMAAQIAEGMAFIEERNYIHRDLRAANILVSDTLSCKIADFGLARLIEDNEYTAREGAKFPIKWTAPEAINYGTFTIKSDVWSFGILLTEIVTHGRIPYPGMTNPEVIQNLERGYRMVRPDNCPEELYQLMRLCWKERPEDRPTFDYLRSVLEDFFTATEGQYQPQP
UniProt P53667: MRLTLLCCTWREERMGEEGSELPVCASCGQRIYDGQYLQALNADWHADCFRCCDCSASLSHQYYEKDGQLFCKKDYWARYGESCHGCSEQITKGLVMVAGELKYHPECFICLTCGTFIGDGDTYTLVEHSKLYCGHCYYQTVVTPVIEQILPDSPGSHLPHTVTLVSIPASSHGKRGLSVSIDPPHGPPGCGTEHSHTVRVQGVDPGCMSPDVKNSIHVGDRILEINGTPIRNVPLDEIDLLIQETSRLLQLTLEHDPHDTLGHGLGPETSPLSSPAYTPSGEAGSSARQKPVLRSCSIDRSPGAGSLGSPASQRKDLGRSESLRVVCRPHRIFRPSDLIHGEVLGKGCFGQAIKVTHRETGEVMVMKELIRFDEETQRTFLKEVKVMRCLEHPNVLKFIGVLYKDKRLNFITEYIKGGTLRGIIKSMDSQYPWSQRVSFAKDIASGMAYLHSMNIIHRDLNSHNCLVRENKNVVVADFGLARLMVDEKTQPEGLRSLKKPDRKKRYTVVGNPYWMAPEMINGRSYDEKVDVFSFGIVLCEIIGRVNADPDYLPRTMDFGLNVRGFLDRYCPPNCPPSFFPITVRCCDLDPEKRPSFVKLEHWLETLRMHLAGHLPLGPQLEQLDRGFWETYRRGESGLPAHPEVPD
UniProt P53671: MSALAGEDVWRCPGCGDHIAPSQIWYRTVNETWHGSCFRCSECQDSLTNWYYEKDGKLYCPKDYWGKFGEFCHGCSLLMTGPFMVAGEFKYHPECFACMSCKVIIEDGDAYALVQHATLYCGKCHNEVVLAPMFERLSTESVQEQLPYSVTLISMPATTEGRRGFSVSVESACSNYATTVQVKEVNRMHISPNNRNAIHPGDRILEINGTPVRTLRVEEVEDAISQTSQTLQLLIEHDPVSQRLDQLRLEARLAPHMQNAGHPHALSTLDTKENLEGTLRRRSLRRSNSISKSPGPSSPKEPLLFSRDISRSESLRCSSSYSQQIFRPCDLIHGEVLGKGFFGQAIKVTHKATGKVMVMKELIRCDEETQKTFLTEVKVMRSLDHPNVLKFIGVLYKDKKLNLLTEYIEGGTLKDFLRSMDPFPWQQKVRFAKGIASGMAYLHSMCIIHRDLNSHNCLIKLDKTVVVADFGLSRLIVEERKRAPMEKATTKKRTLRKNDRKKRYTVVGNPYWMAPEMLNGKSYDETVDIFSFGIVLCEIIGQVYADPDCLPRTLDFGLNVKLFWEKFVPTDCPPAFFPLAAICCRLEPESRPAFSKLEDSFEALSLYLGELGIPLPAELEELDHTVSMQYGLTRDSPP
UniProt Q8IWU2: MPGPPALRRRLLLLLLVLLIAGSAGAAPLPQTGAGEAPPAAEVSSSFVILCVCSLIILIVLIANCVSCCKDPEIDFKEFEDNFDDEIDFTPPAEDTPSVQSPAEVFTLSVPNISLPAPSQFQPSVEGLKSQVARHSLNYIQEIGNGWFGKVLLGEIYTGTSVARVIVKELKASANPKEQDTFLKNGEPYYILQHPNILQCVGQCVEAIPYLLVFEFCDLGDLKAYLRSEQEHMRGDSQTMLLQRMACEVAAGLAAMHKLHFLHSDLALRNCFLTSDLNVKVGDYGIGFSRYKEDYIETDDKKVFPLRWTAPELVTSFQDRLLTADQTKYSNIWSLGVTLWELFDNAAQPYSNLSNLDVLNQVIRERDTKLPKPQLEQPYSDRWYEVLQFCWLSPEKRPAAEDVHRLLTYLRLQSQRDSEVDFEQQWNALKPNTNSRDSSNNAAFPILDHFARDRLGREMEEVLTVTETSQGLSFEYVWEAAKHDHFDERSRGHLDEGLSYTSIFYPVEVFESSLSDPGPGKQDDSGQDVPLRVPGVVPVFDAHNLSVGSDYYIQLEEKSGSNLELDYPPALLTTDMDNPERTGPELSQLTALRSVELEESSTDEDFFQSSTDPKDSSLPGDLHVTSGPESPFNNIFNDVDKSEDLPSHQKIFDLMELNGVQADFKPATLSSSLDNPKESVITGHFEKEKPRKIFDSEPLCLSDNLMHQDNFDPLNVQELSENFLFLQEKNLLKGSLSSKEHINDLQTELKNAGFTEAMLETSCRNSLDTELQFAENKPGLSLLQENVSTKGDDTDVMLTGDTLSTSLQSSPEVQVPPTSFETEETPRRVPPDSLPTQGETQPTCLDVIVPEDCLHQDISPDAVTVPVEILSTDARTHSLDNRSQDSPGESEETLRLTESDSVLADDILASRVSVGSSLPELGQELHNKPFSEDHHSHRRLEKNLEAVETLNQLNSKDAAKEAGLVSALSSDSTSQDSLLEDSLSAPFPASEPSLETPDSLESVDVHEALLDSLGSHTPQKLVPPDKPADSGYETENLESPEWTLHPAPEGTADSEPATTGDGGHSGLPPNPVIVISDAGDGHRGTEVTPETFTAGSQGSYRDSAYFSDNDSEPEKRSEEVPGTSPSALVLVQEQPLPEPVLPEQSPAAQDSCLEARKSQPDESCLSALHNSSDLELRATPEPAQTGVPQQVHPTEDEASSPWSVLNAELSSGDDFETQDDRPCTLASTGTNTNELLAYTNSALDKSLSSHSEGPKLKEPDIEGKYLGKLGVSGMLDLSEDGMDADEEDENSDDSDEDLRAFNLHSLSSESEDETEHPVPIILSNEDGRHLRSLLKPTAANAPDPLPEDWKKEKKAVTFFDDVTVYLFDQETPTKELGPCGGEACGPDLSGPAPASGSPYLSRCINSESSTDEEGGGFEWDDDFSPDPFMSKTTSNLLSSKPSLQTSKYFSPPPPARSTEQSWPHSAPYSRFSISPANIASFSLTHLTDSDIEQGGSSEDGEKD
UniProt P07948: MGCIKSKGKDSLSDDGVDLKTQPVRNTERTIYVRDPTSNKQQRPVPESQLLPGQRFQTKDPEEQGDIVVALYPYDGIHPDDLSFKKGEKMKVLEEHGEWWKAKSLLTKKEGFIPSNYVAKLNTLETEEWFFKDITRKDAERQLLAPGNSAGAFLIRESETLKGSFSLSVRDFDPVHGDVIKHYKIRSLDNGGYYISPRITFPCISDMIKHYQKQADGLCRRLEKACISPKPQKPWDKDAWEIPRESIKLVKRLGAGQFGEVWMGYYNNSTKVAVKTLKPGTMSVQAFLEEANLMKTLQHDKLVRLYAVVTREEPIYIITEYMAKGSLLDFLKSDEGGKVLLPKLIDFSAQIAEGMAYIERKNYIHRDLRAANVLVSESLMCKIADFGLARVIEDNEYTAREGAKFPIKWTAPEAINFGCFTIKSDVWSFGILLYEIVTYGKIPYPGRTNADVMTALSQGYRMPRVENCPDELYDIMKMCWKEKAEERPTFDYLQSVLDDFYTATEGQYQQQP
UniProt Q12851: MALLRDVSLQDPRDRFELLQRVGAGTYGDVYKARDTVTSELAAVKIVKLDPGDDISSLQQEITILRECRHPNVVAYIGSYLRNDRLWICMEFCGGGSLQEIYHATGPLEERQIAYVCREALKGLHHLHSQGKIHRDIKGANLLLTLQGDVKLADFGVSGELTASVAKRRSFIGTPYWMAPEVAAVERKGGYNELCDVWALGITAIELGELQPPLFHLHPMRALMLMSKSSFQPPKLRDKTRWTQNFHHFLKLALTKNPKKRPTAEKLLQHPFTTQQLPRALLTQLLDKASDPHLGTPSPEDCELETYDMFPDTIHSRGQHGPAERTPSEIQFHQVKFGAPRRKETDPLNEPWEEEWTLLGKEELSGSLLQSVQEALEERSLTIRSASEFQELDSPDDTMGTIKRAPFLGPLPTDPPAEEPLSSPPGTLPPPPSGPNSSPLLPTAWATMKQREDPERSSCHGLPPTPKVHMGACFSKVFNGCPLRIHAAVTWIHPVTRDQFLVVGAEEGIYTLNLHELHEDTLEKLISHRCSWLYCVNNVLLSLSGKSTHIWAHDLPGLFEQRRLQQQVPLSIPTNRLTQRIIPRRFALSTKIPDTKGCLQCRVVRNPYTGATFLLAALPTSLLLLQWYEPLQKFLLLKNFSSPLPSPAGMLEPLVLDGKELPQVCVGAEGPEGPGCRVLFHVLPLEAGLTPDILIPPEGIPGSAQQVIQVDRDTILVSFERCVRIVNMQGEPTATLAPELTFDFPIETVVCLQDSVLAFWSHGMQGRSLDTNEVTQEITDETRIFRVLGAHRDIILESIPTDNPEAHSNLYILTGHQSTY

Legend:
Test in all cases: kinase-Nluc reporter destabilization hit call (1 = scored as downregulated) (binary); higher = compound decreases kinase abundance
Conditions in all cases: K562; 2-18 h
IRAK3 = IRAK3 (UniProt Q9Y616)
JAK1 = JAK1 (UniProt P23458)
LCK = LCK (UniProt P06239)
LIMK1 = LIMK1 (UniProt P53667)
LIMK2 = LIMK2 (UniProt P53671)
LMTK2 = LMTK2 (UniProt Q8IWU2)
LYN = LYN (UniProt P07948)
MAP2K1 = MAP2K1 (UniProt Q02750)
MAP2K2 = MAP2K2 (UniProt P36507)
MAP4K2 = MAP4K2 (UniProt Q12851)

Measured: kinase-Nluc reporter destabilization hit call

CS(=O)(=O)c1ccc([C@@H](CC2CCCC2)C(=O)Nc2nccs2)cc1 (10 µM)
inactive: IRAK3 = 0 | JAK1 = 0 | LCK 0 | LIMK1 = 0 | LIMK2 = 0 | LMTK2 = 0 | LYN 0 | MAP2K1 = 0 | MAP2K2 = 0 | MAP4K2 = 0

Nc1ccc(O)c(C(=O)O)c1 [5-Aminosalicylic Acid] (10 µM)
inactive: IRAK3 = 0 | JAK1 = 0 | LCK 0 | LIMK1 = 0 | LIMK2 = 0 | LMTK2 = 0 | LYN 0 | MAP2K1 = 0 | MAP2K2 = 0 | MAP4K2 = 0

CC/C(=C(\c1ccccc1)c1ccc(OCCNC)cc1)c1ccccc1 [N-Desmethyltamoxifen (hydrochloride)] (2.5 µM)
inactive: IRAK3 = 0 | JAK1 = 0 | LCK 0 | LIMK1 = 0 | LIMK2 = 0 | LMTK2 = 0 | LYN 0 | MAP2K1 = 0 | MAP2K2 = 0 | MAP4K2 = 0

CN1CCN(Cc2ccc(-c3cn(C4CCC(O)CC4)c4nc(NCCC5CC5)ncc34)cc2)CC1 (stereo not given) (2.5 µM)
inactive: IRAK3 = 0 | JAK1 = 0 | LCK 0 | LIMK1 = 0 | LIMK2 = 0 | LMTK2 = 0 | LYN 0 | MAP2K1 = 0 | MAP2K2 = 0 | MAP4K2 = 0

CO[C@@H]1[C@H](N(C)C(=O)c2ccccc2)C[C@H]2O[C@]1(C)n1c3ccccc3c3c4c(c5c6ccccc6n2c5c31)C(=O)NC4 [Midostaurin] (2.5 µM)
inactive: IRAK3 = 0 | JAK1 = 0 | LCK 0 | LIMK1 = 0 | LIMK2 = 0 | LMTK2 = 0 | LYN 0 | MAP2K1 = 0 | MAP2K2 = 0 | MAP4K2 = 0

Oc1ccc(-c2cnc3ccc(NCc4ccco4)nn23)cc1 [IRAK inhibitor 2] (2.5 µM)
inactive: IRAK3 = 0 | JAK1 = 0 | LCK 0 | LIMK1 = 0 | LIMK2 = 0 | LMTK2 = 0 | LYN 0 | MAP2K1 = 0 | MAP2K2 = 0 | MAP4K2 = 0

COCCNc1cc(NC(=O)N2CCCc3cc(CN4CCOCC4=O)c(C=O)nc32)ncc1C#N (10 µM)
inactive: IRAK3 = 0 | JAK1 = 0 | LCK 0 | LIMK1 = 0 | LIMK2 = 0 | LMTK2 = 0 | LYN 0 | MAP2K1 = 0 | MAP2K2 = 0 | MAP4K2 = 0

CN(C)c1cc[n+](Cc2ccc(OCCOc3ccc(C[n+]4ccc(N(C)C)cc4)cc3)cc2)cc1 (10 µM)
inactive: IRAK3 = 0 | JAK1 = 0 | LCK 0 | LIMK1 = 0 | LIMK2 = 0 | LMTK2 = 0 | LYN 0 | MAP2K1 = 0 | MAP2K2 = 0 | MAP4K2 = 0

CN(C[C@@H]1COCCO1)S(=O)(=O)Nc1ccc2ccc3ncc(-c4cnn(C)c4)cc3c(=O)c2c1 (2.5 µM)
inactive: IRAK3 = 0 | JAK1 = 0 | LCK 0 | LIMK1 = 0 | LIMK2 = 0 | LMTK2 = 0 | LYN 0 | MAP2K1 = 0 | MAP2K2 = 0 | MAP4K2 = 0

C[C@@H]1CN(Cc2ccc(F)cc2)[C@@H](C)CN1C(=O)c1cc2c(C(=O)C(=O)N(C)C)cn(C)c2cc1Cl [Talmapimod] (10 µM)
inactive: IRAK3 = 0 | JAK1 = 0 | LCK 0 | LIMK1 = 0 | LIMK2 = 0 | LMTK2 = 0 | LYN 0 | MAP2K1 = 0 | MAP2K2 = 0 | MAP4K2 = 0

CCNC(=O)Nc1ccc(-c2nc3c(c(N4CCOC[C@@H]4C)n2)CCN(C2COC2)C3)cc1 (2.5 µM)
inactive: IRAK3 = 0 | JAK1 = 0 | LCK 0 | LIMK1 = 0 | LIMK2 = 0 | LMTK2 = 0 | LYN 0 | MAP2K1 = 0 | MAP2K2 = 0 | MAP4K2 = 0

CN1C(=O)[C@@H](NC(=O)c2cc(Cc3ccccc3)on2)COc2ccccc21 (10 µM)
inactive: IRAK3 = 0 | JAK1 = 0 | LCK 0 | LIMK1 = 0 | LIMK2 = 0 | LMTK2 = 0 | LYN 0 | MAP2K1 = 0 | MAP2K2 = 0 | MAP4K2 = 0

CN1CCN(c2ccc(-c3ccncc3-c3cc(F)c(O)c(F)c3)cc2)CC1 (10 µM)
inactive: IRAK3 = 0 | JAK1 = 0 | LCK 0 | LIMK1 = 0 | LIMK2 = 0 | LMTK2 = 0 | LYN 0 | MAP2K1 = 0 | MAP2K2 = 0 | MAP4K2 = 0

C[C@H](Nc1cc2c(-c3ccc4c(c3)OCO4)noc2cn1)c1ccccc1 (10 µM)
inactive: IRAK3 = 0 | JAK1 = 0 | LCK 0 | LIMK1 = 0 | LIMK2 = 0 | LMTK2 = 0 | LYN 0 | MAP2K1 = 0 | MAP2K2 = 0 | MAP4K2 = 0

C=CC(=O)Nc1cccc(Oc2nc(Nc3ccc(N4CCN(C)CC4)cc3OC)ncc2Cl)c1 (10 µM)
inactive: IRAK3 = 0 | JAK1 = 0 | LCK 0 | LIMK1 = 0 | LIMK2 = 0 | LMTK2 = 0 | LYN 0 | MAP2K1 = 0 | MAP2K2 = 0 | MAP4K2 = 0

CCOc1cc(N2CCC(O)CC2)ccc1Nc1ncc2c(n1)N(C1CCCC1)CCC(=O)N2C (2.5 µM)
inactive: IRAK3 = 0 | JAK1 = 0 | LCK 0 | LIMK1 = 0 | LIMK2 = 0 | LMTK2 = 0 | LYN 0 | MAP2K1 = 0 | MAP2K2 = 0 | MAP4K2 = 0

COc1cc2nc(NC3CC3)nc(NC3CCN(C(C)C)CC3)c2cc1OC (10 µM)
inactive: IRAK3 = 0 | JAK1 = 0 | LCK 0 | LIMK1 = 0 | LIMK2 = 0 | LMTK2 = 0 | LYN 0 | MAP2K1 = 0 | MAP2K2 = 0 | MAP4K2 = 0

CN1CCC(Nc2ccc(C(=O)Nc3cc(-c4ccc5c(c4)OCO5)[nH]n3)cc2)CC1 (10 µM)
inactive: IRAK3 = 0 | JAK1 = 0 | LCK 0 | LIMK1 = 0 | LIMK2 = 0 | LMTK2 = 0 | LYN 0 | MAP2K1 = 0 | MAP2K2 = 0 | MAP4K2 = 0

CNCc1cc(Oc2ccc3c(ccn3C(=O)Nc3cc(C(F)(F)F)n(C)n3)c2)ncn1 [Acrizanib] (10 µM)
inactive: IRAK3 = 0 | JAK1 = 0 | LCK 0 | LIMK1 = 0 | LIMK2 = 0 | LMTK2 = 0 | LYN 0 | MAP2K1 = 0 | MAP2K2 = 0 | MAP4K2 = 0

CN(C)C(=O)c1cc2cnc(Nc3ccc(N4CCN(CCCCNC(=O)COc5cccc6c5C(=O)N(C5CCC(=O)NC5=O)C6=O)CC4)cn3)nc2n1C1CCCC1 (stereo not given) (10 µM)
inactive: IRAK3 = 0 | JAK1 = 0 | LCK 0 | LIMK1 = 0 | LIMK2 = 0 | LMTK2 = 0 | LYN 0 | MAP2K1 = 0 | MAP2K2 = 0 | MAP4K2 = 0

COc1cc2c(cc1OC)[C@@H]1C(=O)c3ccc4c(c3O[C@@H]1CO2)C=CC(C)(C)O4 [Deguelin] (10 µM)
inactive: IRAK3 = 0 | JAK1 = 0 | LCK 0 | LIMK1 = 0 | LIMK2 = 0 | LMTK2 = 0 | LYN 0 | MAP2K1 = 0 | MAP2K2 = 0 | MAP4K2 = 0

O=C1NC(=O)C(Cc2c[nH]c3c(Cl)cccc23)N1 (stereo not given) [Necroptosis-IN-1] (10 µM)
inactive: IRAK3 = 0 | JAK1 = 0 | LCK 0 | LIMK1 = 0 | LIMK2 = 0 | LMTK2 = 0 | LYN 0 | MAP2K1 = 0 | MAP2K2 = 0 | MAP4K2 = 0

CCOC(=O)c1c(N2CCc3ccc(OC)cc3C2)oc(C=C2C=Nc3ncccc32)c1O (10 µM)
inactive: IRAK3 = 0 | JAK1 = 0 | LCK 0 | LIMK1 = 0 | LIMK2 = 0 | LMTK2 = 0 | LYN 0 | MAP2K1 = 0 | MAP2K2 = 0 | MAP4K2 = 0

O=C(CCl)c1c[nH]c2ccccc12 (2.5 µM)
inactive: IRAK3 = 0 | JAK1 = 0 | LCK 0 | LIMK1 = 0 | LIMK2 = 0 | LMTK2 = 0 | LYN 0 | MAP2K1 = 0 | MAP2K2 = 0 | MAP4K2 = 0

2 entries picked at random from the list so far, as already listed:
O=C1NC(=O)C(Cc2c[nH]c3c(Cl)cccc23)N1 (stereo not given) [Necroptosis-IN-1] (10 µM)
inactive: IRAK3 = 0 | JAK1 = 0 | LCK 0 | LIMK1 = 0 | LIMK2 = 0 | LMTK2 = 0 | LYN 0 | MAP2K1 = 0 | MAP2K2 = 0 | MAP4K2 = 0

CCOC(=O)c1c(N2CCc3ccc(OC)cc3C2)oc(C=C2C=Nc3ncccc32)c1O (10 µM)
inactive: IRAK3 = 0 | JAK1 = 0 | LCK 0 | LIMK1 = 0 | LIMK2 = 0 | LMTK2 = 0 | LYN 0 | MAP2K1 = 0 | MAP2K2 = 0 | MAP4K2 = 0

(list continues)

COCCOc1cnc2ccn([C@H](C)c3nnc4c(F)cc(-c5cnn(C)c5)cn34)c(=O)c2c1 (10 µM)
inactive: IRAK3 = 0 | JAK1 = 0 | LCK 0 | LIMK1 = 0 | LIMK2 = 0 | LMTK2 = 0 | LYN 0 | MAP2K1 = 0 | MAP2K2 = 0 | MAP4K2 = 0

CS[C@@]1(C(=O)Nc2ccc3[nH]nc(-c4ccc(OC(C)C)nc4)c3c2)CCN(CC(=O)N2CC=C(c3ccc(-c4ncn(C)n4)cc3)CC2)C1 (2.5 µM)
inactive: IRAK3 = 0 | JAK1 = 0 | LCK 0 | LIMK1 = 0 | LIMK2 = 0 | LMTK2 = 0 | LYN 0 | MAP2K1 = 0 | MAP2K2 = 0 | MAP4K2 = 0

CCC(F)(F)c1cc(N2CCC(S(C)(=O)=O)CC2)nc2sc(C(N)=O)c(N)c12 (10 µM)
inactive: IRAK3 = 0 | JAK1 = 0 | LCK 0 | LIMK1 = 0 | LIMK2 = 0 | LMTK2 = 0 | LYN 0 | MAP2K1 = 0 | MAP2K2 = 0 | MAP4K2 = 0

Cc1nc(NC(=O)N2CCC[C@H]2C(N)=O)sc1-c1ccnc(C(C)(C)C(F)(F)F)c1 [Alpelisib] (2.5 µM)
inactive: IRAK3 = 0 | JAK1 = 0 | LCK 0 | LIMK1 = 0 | LIMK2 = 0 | LMTK2 = 0 | LYN 0 | MAP2K1 = 0 | MAP2K2 = 0 | MAP4K2 = 0

CNC(=O)CN1CCC(Oc2cc3c(Nc4cccc(Cl)c4F)ncnc3cc2OC)CC1 [Sapitinib] (10 µM)
inactive: IRAK3 = 0 | JAK1 = 0 | LCK 0 | LIMK1 = 0 | LIMK2 = 0 | LMTK2 = 0 | LYN 0 | MAP2K1 = 0 | MAP2K2 = 0 | MAP4K2 = 0

C[C@@H](NC(=O)c1ncnc(N)c1Cl)c1ncc(C(=O)Nc2cc(C(F)(F)F)c(Cl)cn2)s1 (2.5 µM)
inactive: IRAK3 = 0 | JAK1 = 0 | LCK 0 | LIMK1 = 0 | LIMK2 = 0 | LMTK2 = 0 | LYN 0 | MAP2K1 = 0 | MAP2K2 = 0 | MAP4K2 = 0
